In the supplement of paper PMC7661543:
The effect of the compound repeats well; differences between the knockouts mostly do not.

Tested on: MDA-MB-231
Experiment: relative cell number vs DMSO control (72 h) (% of DMSO); higher = less growth inhibition (more cells)
Experimental: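 QMAP-Seq: a pool of 5 breast cancer cell lines (ZR-75-1, SKBR3, HCC-38, MDA-MB-231, BT-20), each carrying 12 doxycycline-inducible Cas9 sgRNA perturbations (11 knockouts plus non-targeting sgNT), was treated with compounds for 72 h at four 10-fold doses (10 nM-10 uM or 1 nM-1 uM range). Barcodes were amplified and sequenced, and cell number was interpolated from 293T spike-in standard curves. The result is expressed as % of the median of DMSO wells. Two biological replicates.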

COc1cccc2cc(-c3nc([C@H]4CC[C@H](C(=O)O)CC4)n4ncnc(N)c34)[nH]c12 [OSI027]
Details | relative cell number
sgRNA knockout: sgATF3, 10 nM | 97
sgRNA knockout: sgATF3, 100 nM | 128
sgRNA knockout: sgATF3, 1000 nM | 103
sgRNA knockout: sgATF3, 10000 nM | 67.5
sgRNA knockout: sgATF4, 10 nM | 90.7
sgRNA knockout: sgATF4, 100 nM | 115
sgRNA knockout: sgATF4, 1000 nM | 82.9
sgRNA knockout: sgATF4, 10000 nM | 75.5
sgRNA knockout: sgATF6, 10 nM | 114
sgRNA knockout: sgATF6, 100 nM | 104
sgRNA knockout: sgATF6, 1000 nM | 102
sgRNA knockout: sgATF6, 10000 nM | 55.4
sgRNA knockout: sgATG7, 10 nM | 104
sgRNA knockout: sgATG7, 100 nM | 102
sgRNA knockout: sgATG7, 1000 nM | 92.4
sgRNA knockout: sgATG7, 10000 nM | 58.3
sgRNA knockout: sgERN1, 10 nM | 92.7
sgRNA knockout: sgERN1, 100 nM | 101
sgRNA knockout: sgERN1, 1000 nM | 79.8
sgRNA knockout: sgERN1, 10000 nM | 55.6
sgRNA knockout: sgHSF1, 10 nM | 107
sgRNA knockout: sgHSF1, 100 nM | 111.4
sgRNA knockout: sgHSF1, 1000 nM | 74.7
sgRNA knockout: sgHSF1, 10000 nM | 58.8
sgRNA knockout: sgHSF2, 10 nM | 113
sgRNA knockout: sgHSF2, 100 nM | 120
sgRNA knockout: sgHSF2, 1000 nM | 77.2
sgRNA knockout: sgHSF2, 10000 nM | 61.6
sgRNA knockout: sgKEAP1, 10 nM | 81
sgRNA knockout: sgKEAP1, 100 nM | 109
sgRNA knockout: sgKEAP1, 1000 nM | 86.5
sgRNA knockout: sgKEAP1, 10000 nM | 51.7
sgRNA knockout: sgNFE2L2, 10 nM | 135
sgRNA knockout: sgNFE2L2, 100 nM | 117
sgRNA knockout: sgNFE2L2, 1000 nM | 88.4
sgRNA knockout: sgNFE2L2, 10000 nM | 58.9
sgRNA knockout: sgSLC35F2, 10 nM | 93.2
sgRNA knockout: sgSLC35F2, 100 nM | 122
sgRNA knockout: sgSLC35F2, 1000 nM | 88.5
sgRNA knockout: sgSLC35F2, 10000 nM | 63
sgRNA knockout: sgXBP1, 10 nM | 125
sgRNA knockout: sgXBP1, 100 nM | 112
sgRNA knockout: sgXBP1, 1000 nM | 82.4
sgRNA knockout: sgXBP1, 10000 nM | 57.3

Clc1ccc(C2(c3ccc(-c4cn[nH]c4)cc3)CCNCC2)cc1 [AT7867]
Details | relative cell number
sgRNA knockout: sgATF3, 10 nM | 61.5
sgRNA knockout: sgATF3, 100 nM | 86.3
sgRNA knockout: sgATF3, 1000 nM | 59.6
sgRNA knockout: sgATF3, 10000 nM | 17.7
sgRNA knockout: sgATF4, 10 nM | 102
sgRNA knockout: sgATF4, 100 nM | 111
sgRNA knockout: sgATF4, 1000 nM | 59.6
sgRNA knockout: sgATF4, 10000 nM | 18.4
sgRNA knockout: sgATF6, 10 nM | 79.7
sgRNA knockout: sgATF6, 100 nM | 68.2
sgRNA knockout: sgATF6, 1000 nM | 40.2
sgRNA knockout: sgATF6, 10000 nM | 15.2
sgRNA knockout: sgATG7, 10 nM | 88.2
sgRNA knockout: sgATG7, 100 nM | 90.3
sgRNA knockout: sgATG7, 1000 nM | 44.4
sgRNA knockout: sgATG7, 10000 nM | 17.5
sgRNA knockout: sgERN1, 10 nM | 83.7
sgRNA knockout: sgERN1, 100 nM | 94.6
sgRNA knockout: sgERN1, 1000 nM | 54.3
sgRNA knockout: sgERN1, 10000 nM | 14.7
sgRNA knockout: sgHSF1, 10 nM | 85.7
sgRNA knockout: sgHSF1, 100 nM | 90.77
sgRNA knockout: sgHSF1, 1000 nM | 55.5
sgRNA knockout: sgHSF1, 10000 nM | 15.1
sgRNA knockout: sgHSF2, 10 nM | 97.7
sgRNA knockout: sgHSF2, 100 nM | 86.07
sgRNA knockout: sgHSF2, 1000 nM | 46.3
sgRNA knockout: sgHSF2, 10000 nM | 17.4
sgRNA knockout: sgKEAP1, 10 nM | 186
sgRNA knockout: sgKEAP1, 100 nM | 94.6
sgRNA knockout: sgKEAP1, 1000 nM | 59.8
sgRNA knockout: sgKEAP1, 10000 nM | 16.3
sgRNA knockout: sgNFE2L2, 10 nM | 105
sgRNA knockout: sgNFE2L2, 100 nM | 77.3
sgRNA knockout: sgNFE2L2, 1000 nM | 47
sgRNA knockout: sgNFE2L2, 10000 nM | 16.7
sgRNA knockout: sgSLC35F2, 10 nM | 86.6
sgRNA knockout: sgSLC35F2, 100 nM | 112
sgRNA knockout: sgSLC35F2, 1000 nM | 34
sgRNA knockout: sgSLC35F2, 10000 nM | 17
sgRNA knockout: sgXBP1, 10 nM | 81.2
sgRNA knockout: sgXBP1, 100 nM | 102
sgRNA knockout: sgXBP1, 1000 nM | 42.1
sgRNA knockout: sgXBP1, 10000 nM | 13.7

C[C@@H](Nc1cc(F)cc(F)c1)c1cc(C(=O)N(C)C)cc2c(=O)cc(N3CCOCC3)oc12 [AZD8186]
Details | relative cell number
sgRNA knockout: sgATF3, 10 nM | 104
sgRNA knockout: sgATF3, 100 nM | 119
sgRNA knockout: sgATF3, 1000 nM | 102
sgRNA knockout: sgATF3, 10000 nM | 101
sgRNA knockout: sgATF4, 10 nM | 123
sgRNA knockout: sgATF4, 100 nM | 157
sgRNA knockout: sgATF4, 1000 nM | 108
sgRNA knockout: sgATF4, 10000 nM | 111
sgRNA knockout: sgATF6, 10 nM | 88.3
sgRNA knockout: sgATF6, 100 nM | 121
sgRNA knockout: sgATF6, 1000 nM | 87
sgRNA knockout: sgATF6, 10000 nM | 83
sgRNA knockout: sgATG7, 10 nM | 110
sgRNA knockout: sgATG7, 100 nM | 109
sgRNA knockout: sgATG7, 1000 nM | 102
sgRNA knockout: sgATG7, 10000 nM | 84.4
sgRNA knockout: sgERN1, 10 nM | 114
sgRNA knockout: sgERN1, 100 nM | 114
sgRNA knockout: sgERN1, 1000 nM | 90.4
sgRNA knockout: sgERN1, 10000 nM | 77.6
sgRNA knockout: sgHSF1, 10 nM | 96.5
sgRNA knockout: sgHSF1, 100 nM | 93.2
sgRNA knockout: sgHSF1, 1000 nM | 104
sgRNA knockout: sgHSF1, 10000 nM | 80.6
sgRNA knockout: sgHSF2, 10 nM | 126
sgRNA knockout: sgHSF2, 100 nM | 121
sgRNA knockout: sgHSF2, 1000 nM | 103
sgRNA knockout: sgHSF2, 10000 nM | 93.1
sgRNA knockout: sgKEAP1, 10 nM | 97.9
sgRNA knockout: sgKEAP1, 100 nM | 114
sgRNA knockout: sgKEAP1, 1000 nM | 101
sgRNA knockout: sgKEAP1, 10000 nM | 98.5
sgRNA knockout: sgNFE2L2, 10 nM | 116
sgRNA knockout: sgNFE2L2, 100 nM | 118
sgRNA knockout: sgNFE2L2, 1000 nM | 103
sgRNA knockout: sgNFE2L2, 10000 nM | 97
sgRNA knockout: sgSLC35F2, 10 nM | 107
sgRNA knockout: sgSLC35F2, 100 nM | 125
sgRNA knockout: sgSLC35F2, 1000 nM | 93
sgRNA knockout: sgSLC35F2, 10000 nM | 100
sgRNA knockout: sgXBP1, 10 nM | 104
sgRNA knockout: sgXBP1, 100 nM | 125
sgRNA knockout: sgXBP1, 1000 nM | 89.5
sgRNA knockout: sgXBP1, 10000 nM | 94.9

Cc1ccccc1-n1c(Cn2cnc3c(N)ncnc32)nc2cccc(C)c2c1=O
Details | relative cell number
sgRNA knockout: sgATF3, 10 nM | 134
sgRNA knockout: sgATF3, 100 nM | 144
sgRNA knockout: sgATF3, 1000 nM | 112
sgRNA knockout: sgATF3, 10000 nM | 126
sgRNA knockout: sgATF4, 10 nM | 154
sgRNA knockout: sgATF4, 100 nM | 159
sgRNA knockout: sgATF4, 1000 nM | 144
sgRNA knockout: sgATF4, 10000 nM | 129
sgRNA knockout: sgATF6, 10 nM | 103
sgRNA knockout: sgATF6, 100 nM | 114
sgRNA knockout: sgATF6, 1000 nM | 110
sgRNA knockout: sgATF6, 10000 nM | 110
sgRNA knockout: sgATG7, 10 nM | 121
sgRNA knockout: sgATG7, 100 nM | 114
sgRNA knockout: sgATG7, 1000 nM | 117
sgRNA knockout: sgATG7, 10000 nM | 106
sgRNA knockout: sgERN1, 10 nM | 113
sgRNA knockout: sgERN1, 100 nM | 117
sgRNA knockout: sgERN1, 1000 nM | 102
sgRNA knockout: sgERN1, 10000 nM | 98.3
sgRNA knockout: sgHSF1, 10 nM | 87.3
sgRNA knockout: sgHSF1, 100 nM | 126
sgRNA knockout: sgHSF1, 1000 nM | 109
sgRNA knockout: sgHSF1, 10000 nM | 103
sgRNA knockout: sgHSF2, 10 nM | 98.3
sgRNA knockout: sgHSF2, 100 nM | 143.3
sgRNA knockout: sgHSF2, 1000 nM | 107
sgRNA knockout: sgHSF2, 10000 nM | 114
sgRNA knockout: sgKEAP1, 10 nM | 94.1
sgRNA knockout: sgKEAP1, 100 nM | 123
sgRNA knockout: sgKEAP1, 1000 nM | 93.7
sgRNA knockout: sgKEAP1, 10000 nM | 105
sgRNA knockout: sgNFE2L2, 10 nM | 110
sgRNA knockout: sgNFE2L2, 100 nM | 137
sgRNA knockout: sgNFE2L2, 1000 nM | 94.2
sgRNA knockout: sgNFE2L2, 10000 nM | 94.9
sgRNA knockout: sgSLC35F2, 10 nM | 132
sgRNA knockout: sgSLC35F2, 100 nM | 103
sgRNA knockout: sgSLC35F2, 1000 nM | 110
sgRNA knockout: sgSLC35F2, 10000 nM | 132
sgRNA knockout: sgXBP1, 10 nM | 102
sgRNA knockout: sgXBP1, 100 nM | 114
sgRNA knockout: sgXBP1, 1000 nM | 96.6
sgRNA knockout: sgXBP1, 10000 nM | 105
